In PubChem BioAssay AID2685 (National Center for Advancing Translational Sciences (NCATS), 2010):
Some of the results follow. These are further read-outs of the screen, such as a control signal, another cell line or another target. No call is given for them. Most of these compounds were active or inconclusive in the main read-out, so they are no random draw. The note in brackets gives the kind of curve behind each potency; many fits are weak.

Assay: qHTS Assay for Lipid Storage Modulators in Drosophila S3 Cells;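 for cell number change: cells counted by Cell Tracker Red CMTPX staining in the red channel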
Conditions: BODIPY lipid droplet fluorescence, 18-24 h; for cell number change: measured here: cell count max response, cells fed with added oleic acid
How it was run: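 Laser-scanning cytometry quantifies lipid droplet accumulation (500–530 nm total intensity; droplet/cell object ratio) in oleic acid-fed (400 uM added) Drosophila S3 cells treated with a concentration series. 20 uM Triacsin C defined 100% inhibition.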

[1] = measured here: lipid fluorescence (Fed channel) AC50, cells fed with added oleic acid
[2] = measured here: cell number channel AC50, cells fed with added oleic acid

With COc1ccc([N+](=O)[O-])cc1-n1cccc1 the cell number change was 14.4% and the AC50 [1] was 18.4 µM [rising, single point].
In the case of CCCN(CCC)Cc1c(C(=O)N/N=C/CCc2ccccc2)nnn1-c1nonc1N, the cell number change is reported as 34.2%, the AC50 [2] is reported as 8.2 µM [rising, partial curve, poor fit] and the AC50 [1] is reported as 0.731 µM [falling, partial curve].
In the case of O=C(N/C(=C/c1ccc(Cl)cc1)c1nc2ccccc2[nH]1)c1ccco1, the cell number change is reported as -31.4%, the AC50 [2] is reported as 16.4 µM [falling, single point] and the AC50 [1] is reported as 13 µM [falling, partial curve, poor fit].
O=C(Cc1c(Cl)cccc1Cl)OCc1ccccn1 showed a cell number change of 9.58%.
For O=C(CC1C(=O)NCCN1Cc1cccc(C(F)(F)F)c1)NC1CCCCCC1 (stereo not given), the AC50 [1] was 2.06 µM [falling, partial curve].
In the case of Cc1cc(NC(=O)CSc2nccn2C)n(-c2ccccc2)n1, the cell number change is reported as 6.32% and the AC50 [1] is reported as 0.116 µM [falling, full curve, poor fit].
With CC(=O)COC(=O)C1CCN(S(=O)(=O)c2cc([N+](=O)[O-])ccc2Cl)CC1 the cell number change was -6.33% and the AC50 [1] was 0.00461 µM [falling, full curve].
For CCCN1C2CCCC1CC(NC(=O)c1cc(OC)cc(OC)c1)C2 (stereo not given), the cell number change was 11.4%.
In the case of Cc1ccc(C(=O)O/N=C2/CC3CCC2(C)[C@@]3(C)CBr)cc1 (stereo not given in full), the cell number change is reported as -21.8% and the AC50 [1] is reported as 3.66 µM [falling, full curve, poor fit].
With CC(C)CNC(=O)COC(=O)c1c2c(nc3ccccc13)CCC2 the AC50 [1] was 29.1 µM [falling, single point].
In the case of CCN(CC)Cc1c(O)c(Cl)cc2c(C)c(C)c(=O)oc12, the cell number change is reported as -0.925% and the AC50 [1] is reported as 3.66 µM [falling, single point].
In the case of Cc1ccc(N=Nc2[nH]c3ccccc3c2O)cc1, the cell number change is reported as -6.58% and the AC50 [1] is reported as 8.2 µM [falling, partial curve].
In the case of COc1ccc(-c2[nH]ncc2/C=C(/C#N)C(=O)NC2CCCCC2)cc1, the cell number change is reported as -11.3% and the AC50 [1] is reported as 9.2 µM [rising, partial curve, poor fit].
In the case of Nc1cc(=O)[nH]c(SCc2nc3ccccc3n2Cc2ccccc2)n1, the cell number change is reported as -12.5%.
In the case of Cc1cc(C(=O)CSc2nc3ccccc3n2CCC#N)c(C)n1Cc1cccs1, the cell number change is reported as -20.8% and the AC50 [1] is reported as 0.461 µM [rising, partial curve].
In the case of Cc1cc(C)nc(Nc2nc3ccccc3o2)n1, the cell number change is reported as -9.61%, the AC50 [2] is reported as 0.164 µM [falling, full curve, poor fit] and the AC50 [1] is reported as 0.13 µM [falling, full curve, poor fit].
In the case of Cc1c(C(=O)N(C)c2ccccc2)oc2c1C(O)CC(C)(C)C2 (stereo not given), the AC50 [1] is reported as 0.116 µM [rising, full curve, poor fit].
With CCOC(=O)C1CCN(CC(=O)c2c(C)[nH]c3cc(C)ccc23)CC1 the cell number change was 7.97% and the AC50 [1] was 2.59 µM [rising, partial curve].
With CCN(CC(=O)Nc1ccc2c(c1)OCO2)Cc1nc2ccccc2c(=O)[nH]1 the cell number change was -4.47% and the AC50 [1] was 0.13 µM [rising, full curve, poor fit].
With O=C(Nc1ccc2nc(-c3ccc(Br)o3)[nH]c2c1)c1ccco1 the cell number change was 30.5%, the AC50 [2] was 29.1 µM [rising, single point] and the AC50 [1] was 23.1 µM [rising, single point].
For CC(=O)N1CCc2c(sc(NC(=O)C3CC3)c2-c2nc3ccccc3s2)C1, the AC50 [2] was 0.259 µM [rising, full curve, poor fit] and the AC50 [1] was 5.8 µM [rising, single point].
For CC(=O)Nc1ccc(N2C(=O)CC(N3CC(C)OC(C)C3)C2=O)cc1 (stereo not given), the cell number change was -1.23% and the AC50 [1] was 2.91 µM [rising, single point].
For COc1ccc(CCN2C(=O)C(Oc3ccccc3)C2c2ccc3c(c2)OCO3)cc1 (stereo not given), the cell number change was 15.5% and the AC50 [1] was 1.84 µM [rising, partial curve, poor fit].
In the case of O=C(COc1cc2oc(=O)c3c(c2cc1Cl)CCC3)N1C[C@H]2C[C@@H](C1)c1cccc(=O)n1C2, the cell number change is reported as -12.9% and the AC50 [1] is reported as 32.6 µM [falling, partial curve, poor fit].
O=C(O)c1ccc(S(=O)(=O)N2CCN(c3ccccn3)CC2)cc1 gave a cell number change of 12.4%.
For N#C/C(=C/c1cccn1-c1cccc(C(=O)O)c1)c1ccc(Cl)cc1, the cell number change was -24.6% and the AC50 [1] was 16.4 µM [falling, single point].
For Cc1cc(OCCN2CCCC2)ccc1[N+](=O)[O-], the cell number change was 90.2%, the AC50 [2] was 29.1 µM [rising, single point] and the AC50 [1] was 29.1 µM [rising, single point].
In the case of C=C1C(=O)O[C@@H]2[C@H]1CC[C@H](C)[C@]1(O)CCC(=O)[C@@]21C, the cell number change is reported as -23.4% and the AC50 [1] is reported as 10.3 µM [falling, partial curve].
With O=C(NCCc1cn2ccccc2n1)c1cc(COc2ccc3ncccc3c2)on1 the cell number change was -43.3% and the AC50 [2] was 29.1 µM [falling, single point].
In the case of COc1ccc(NC(=O)COC(=O)C2CC(=O)N(c3ccc(OC(C)C)cc3)C2)cc1 (stereo not given), the cell number change is reported as 50% and the AC50 [1] is reported as 0.1 µM [falling, full curve, poor fit].
For COC(=O)c1nc(-c2ccccc2)n[nH]1, the cell number change was -0.17%, the AC50 [2] was 0.0517 µM [falling, full curve, poor fit] and the AC50 [1] was 25.9 µM [falling, partial curve].
For Cc1oc(-c2ccccc2F)nc1CS(=O)CC(=O)NC1CC1 (stereo not given), the AC50 [1] was 0.58 µM [rising, single point].
For Cc1cc(NC(=O)CSCC(=O)Nc2nc3ccc(F)cc3s2)no1, the AC50 [1] was 9.2 µM [falling, partial curve].
With COC(=O)c1cc(-c2cccc([N+](=O)[O-])c2)c2c(=O)n(C)c(=O)n(C)c2n1 the cell number change was 34%, the AC50 [2] was 18.4 µM [rising, single point] and the AC50 [1] was 20.6 µM [rising, single point].
With COc1cc(-c2n[nH]c(=O)o2)cc(OC)c1OC the cell number change was 23.3% and the AC50 [1] was 9.2 µM [rising, partial curve].
For COc1cccc(-c2nc(-c3cccs3)no2)c1, the AC50 [1] was 29.1 µM [rising, single point].
In the case of O=C(N/N=C/c1ccc(O)c(O)c1)c1cccc(S(=O)(=O)N2CCCCC2)c1, the cell number change is reported as -3.55%.
For O=C(CCc1ccccc1)NC1CCSC1=O (stereo not given), the cell number change was 18.7% and the AC50 [1] was 0.00461 µM [falling, full curve, poor fit].
With COc1cc(/C=C2\SC(=O)N(Cc3ccc(F)cc3)C2=O)cc([N+](=O)[O-])c1O the cell number change was 11.7%.
With O=C(CNC(=O)c1ccc(Cl)cc1)NC1CCCCC1 the cell number change was 18.8% and the AC50 [1] was 29.1 µM [rising, single point].
With N#Cc1ccc(OCC(=O)N/N=C2\CCc3ccccc32)cc1 the cell number change was 101%, the AC50 [2] was 5.17 µM [rising, partial curve] and the AC50 [1] was 3.26 µM [rising, partial curve].
In the case of Oc1ccc(O)c(Cc2nc3ccccc3s2)c1, the cell number change is reported as 63.8% and the AC50 [2] is reported as 29.1 µM [rising, single point].
In the case of Cc1ccccc1N1CC(C(=O)Nc2nnc(SCc3cccnc3)s2)CC1=O (stereo not given), the cell number change is reported as 14.1% and the AC50 [1] is reported as 5.62 µM [rising, single point].
In the case of COc1ccc(Cl)cc1NS(=O)(=O)c1c(C)nc2sccn2c1=O, the cell number change is reported as 2.4% and the AC50 [1] is reported as 29.1 µM [rising, single point].
With CNc1nc(N/N=C/c2cc3c(cc2[N+](=O)[O-])OCO3)nc(Nc2ccccc2)n1 the cell number change was -62.1%, the AC50 [2] was 20.6 µM [falling, single point] and the AC50 [1] was 18.4 µM [falling, single point].
In the case of COc1cccc(C(=O)N2CCSC2=S)c1, the cell number change is reported as -12.7% and the AC50 [1] is reported as 0.103 µM [falling, full curve, poor fit].
In the case of COc1cc(OC)cc(C(=O)N2CCC(N3CCN(c4ccccc4)CC3)CC2)c1, the cell number change is reported as -6.2% and the AC50 [1] is reported as 7.31 µM [rising, partial curve].
In the case of COc1ccc(-c2nnc(SCC(=O)N3CCCCC3)o2)cc1, the cell number change is reported as -8.97%.
With COc1ccc(CN2C3CCC2CC(NC(=O)c2cccc(F)c2)C3)cc1 (stereo not given) the cell number change was -10.8% and the AC50 [1] was 6.51 µM [rising, single point].
With C/C(=N\NC(=O)Cn1nnc2ccccc21)c1ccco1 the cell number change was 10% and the AC50 [1] was 0.13 µM [falling, full curve, poor fit].
In the case of CCCCn1c(CCc2ccccc2)nc2cc3[nH]c(=O)c(C(C)C)nc3cc21, the cell number change is reported as -17.8% and the AC50 [1] is reported as 5.8 µM [falling, single point].
Work on CCOC(=O)c1oc2ccccc2c1NC(=O)c1ccc2c(c1)OCO2 yielded a cell number change of 4.18%.
For O=S(=O)(NCc1ccco1)N1CCCCCC1, the cell number change was -72.6% and the AC50 [2] was 32.6 µM [falling, single point].
For COCCN=c1scc(-c2cc(OC)ccc2OC)n1/N=C/c1c[nH]c2ccccc12, the cell number change was -27.2% and the AC50 [1] was 29.1 µM [falling, single point].
With CCNC(=O)N(C)c1nncnc1C(=O)NC the cell number change was -12.9%.
In the case of COc1cccc(N2C(=O)N(c3ccccc3)C3CS(=O)(=O)CC32)c1 (stereo not given), the cell number change is reported as -7.74% and the AC50 [1] is reported as 0.184 µM [falling, full curve, poor fit].
With Cc1ccc2nc(-c3ccc(SCC(=O)N4CCc5ccccc54)nc3)[nH]c2c1 the cell number change was -90.2%, the AC50 [2] was 18.4 µM [falling, partial curve] and the AC50 [1] was 29.1 µM [falling, single point].
With C=CCc1c(C)c(C#N)c2nc3ccccc3n2c1NCCN(C)C the cell number change was 18.8% and the AC50 [1] was 2.31 µM [rising, single point].
With CC(C)(C)C(=O)N1CCN(c2c(Cl)cccc2[N+](=O)[O-])CC1 the AC50 [1] was 0.461 µM [rising, single point].
For COc1cc(OC)c(C(=O)NNC(=S)NC2CCCCC2)cc1OC, the cell number change was 33.6%, the AC50 [2] was 1.3 µM [rising, full curve] and the AC50 [1] was 1.64 µM [rising, full curve].
